Among the data in article PMC3742539, “ε Subunit of Bacillus subtilis F1-ATPase Relieves MgADP Inhibition” (PLoS ONE, 2013) are Km and kcat values, retold here.

Substrate in the data set: Nc1ncnc2c1ncn2[C@@H]1O[C@H](COP(=O)(O)OP(=O)(O)OP(=O)(O)O)[C@@H](O)[C@H]1O
As to the kind of experiment: purified protein. It counts as biochemical, Bacillus subtilis. As to conditions: initial rate, no LDAO, equimolar MgSO4 plus 2 mM MgSO4, pH 7.5, 50 mM K2SO4, 25 °C.

B1: α3β3γ complex of BF1 (F1-ATPase from Bacillus subtilis) (Bacillus subtilis subsp. subtilis str. 168) (protein)
chain 1: MKKGRVSQVLGPVVDVRFEDGHLPEIYNAIKISQPAASENEVGIDLTLEVALHLGDDTVRTIAMASTDGVQRGMEAVDTGAPISVPVGDVTLGRVFNVLGENIDLNEPVPADAKKDPIHRQAPSFDQLSTEVEILETGIKVVDLLAPYIKGGKIGLFGGAGVGKTVLIQELINNIAQEHGGISVFAGVGERTREGNDLFYEMSDSGVINKTAMVFGQMNEPPGARMRVALTGLTMAEHFRDVQGQDVLFFIDNIFRFTQAGSEVSALLGRMPSAVGYQPTLATEMGQLQERITSTNVGSVTSIQAIYVPADDYTDPAPATTFAHLDATTNLERKLTEMGIYPAVDPLASTSRALAPEIVGEEHYAVAREVQSTLQRYKELQDIIAILGMDELGEEDKLVVHRARRIQFFLSQNFHVAEQFTGQKGSYVPVKETVQGFKEILAGKYDHLPEDAFRLVGRIEEVVEKAKEMGVEV
chain 2: SIKAEEISTLIKQQIQNYQSDIEVQDVGTVIQVGDGIARVHGLDNCMAGELVEFSNGVLGMAQNLEESNVGIVILGPFSEIREGDEVKRTGRIMEVPVGEELIGRIVNPLGQPVDGLGPILTSKTRPIESPAPGVMDRKSVHEPLQTGIKAIDALIPIGRGQRELIIGDRQTGKTSVAIDAILNQKDQDMICVYVAIGQKESTVRGVVETLRKHGALDYTIVVTASASQPAPLLYLAPYAGVTMAEEFMYNGKHVLVVYDDLSKQAAAYRELSLLLRRPPGREAFPGDVFYLHSRLLERAAKLSDAKGAGSITALPFVETQAGDISAYIPTNVISITDGQIFLQSDLFFSGVRPAINAGLSVSRVGGSAQIKAMKKVSGTLRLDLASYRELEAFAQFGSDLDQATQAKLNRGARTVEVLKQDLNKPLPVEKQVAILYALTKGYLDDIPVADIRRFEEEYYMYLDQNHKDLLDGIAKTGNLPADEDFKAAIEGFKRTFAPSN
notes: recombinant α3β3γ subcomplex without δ and ε; His6-tag at N-terminus of β (kept); initiation codons of α and γ changed to ATG; expressed in E. coli BL21(DE3) from pET21-BF1; nucleotide-free; with ATP synthase gamma chain
The Km is the substrate concentration at which the rate is half of its maximum. The term kcat denotes the maximal rate divided by the concentration of active sites. On to B1, for which the Km amounted to 12.7 ± 0.9 µM and the kcat was determined as 56.2 ± 0.9 s⁻¹.

B2: α3β3γε complex of BF1 (F1-ATPase from Bacillus subtilis) (Bacillus subtilis subsp. subtilis str. 168) (protein)
chain 1: B1 chain 1
chain 2: B1 chain 2
notes: recombinant α3β3γ (His6-tag at N-terminus of β, kept) reconstituted with excess separately purified BF1 ε subunit; no δ; E. coli expression; with ATP synthase gamma chain; ATP synthase epsilon chain
For the protein B2, the Km was found to be 13.8 ± 0.9 µM and the kcat came out at 72.3 ± 1.3 s⁻¹.
